Results published in doi:10.1101/2025.09.27.678965.
These are yes or no findings as the source states them, for the method shown. Binding seen in cells or lysates may run through a third protein. Some results given as binding are weak or reduced against the parent protein; the word gives no strength.

By UniProt entry, the sequences of proteins in these tests, tags left out.
UniProt P51532: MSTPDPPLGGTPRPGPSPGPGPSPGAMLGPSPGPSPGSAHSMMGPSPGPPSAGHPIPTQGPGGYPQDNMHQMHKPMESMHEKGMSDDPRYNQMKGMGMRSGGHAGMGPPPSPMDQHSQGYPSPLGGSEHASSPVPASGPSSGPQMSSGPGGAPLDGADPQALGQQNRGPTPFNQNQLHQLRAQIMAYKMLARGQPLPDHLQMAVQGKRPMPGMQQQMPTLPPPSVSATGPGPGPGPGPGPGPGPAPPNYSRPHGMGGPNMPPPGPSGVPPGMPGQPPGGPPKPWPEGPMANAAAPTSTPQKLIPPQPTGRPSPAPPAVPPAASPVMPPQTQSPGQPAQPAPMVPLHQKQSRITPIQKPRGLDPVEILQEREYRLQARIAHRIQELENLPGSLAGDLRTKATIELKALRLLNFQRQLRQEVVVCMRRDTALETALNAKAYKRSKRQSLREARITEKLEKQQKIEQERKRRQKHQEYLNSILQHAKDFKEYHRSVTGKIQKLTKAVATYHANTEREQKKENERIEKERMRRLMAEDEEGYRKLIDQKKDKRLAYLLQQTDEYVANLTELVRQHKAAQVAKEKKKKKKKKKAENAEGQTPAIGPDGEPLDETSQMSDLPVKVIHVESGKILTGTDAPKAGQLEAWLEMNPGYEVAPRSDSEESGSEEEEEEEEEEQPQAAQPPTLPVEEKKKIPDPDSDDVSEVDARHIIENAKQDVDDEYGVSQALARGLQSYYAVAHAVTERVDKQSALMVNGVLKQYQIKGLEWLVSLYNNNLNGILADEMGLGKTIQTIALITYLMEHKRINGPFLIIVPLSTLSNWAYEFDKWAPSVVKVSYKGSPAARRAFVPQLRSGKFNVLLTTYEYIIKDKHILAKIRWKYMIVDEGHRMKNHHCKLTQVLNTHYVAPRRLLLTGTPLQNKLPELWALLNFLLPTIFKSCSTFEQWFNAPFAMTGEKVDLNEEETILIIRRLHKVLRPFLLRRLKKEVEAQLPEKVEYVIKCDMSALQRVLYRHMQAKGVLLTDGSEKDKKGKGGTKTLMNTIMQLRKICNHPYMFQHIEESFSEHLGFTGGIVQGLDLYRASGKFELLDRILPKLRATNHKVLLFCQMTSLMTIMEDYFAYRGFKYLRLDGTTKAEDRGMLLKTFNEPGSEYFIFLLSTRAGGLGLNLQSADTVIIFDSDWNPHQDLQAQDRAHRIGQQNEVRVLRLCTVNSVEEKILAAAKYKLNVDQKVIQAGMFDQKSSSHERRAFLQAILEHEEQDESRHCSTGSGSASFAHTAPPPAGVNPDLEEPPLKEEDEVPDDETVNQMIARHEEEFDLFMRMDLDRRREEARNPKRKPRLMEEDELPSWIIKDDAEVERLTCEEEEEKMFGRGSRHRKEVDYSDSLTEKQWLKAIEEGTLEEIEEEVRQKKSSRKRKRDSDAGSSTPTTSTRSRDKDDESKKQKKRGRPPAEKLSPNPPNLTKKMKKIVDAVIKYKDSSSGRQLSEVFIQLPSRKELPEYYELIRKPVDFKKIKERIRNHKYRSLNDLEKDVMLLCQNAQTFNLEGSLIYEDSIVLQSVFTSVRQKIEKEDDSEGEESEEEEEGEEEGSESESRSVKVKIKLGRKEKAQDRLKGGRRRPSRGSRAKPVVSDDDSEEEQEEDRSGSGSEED
UniProt P53350: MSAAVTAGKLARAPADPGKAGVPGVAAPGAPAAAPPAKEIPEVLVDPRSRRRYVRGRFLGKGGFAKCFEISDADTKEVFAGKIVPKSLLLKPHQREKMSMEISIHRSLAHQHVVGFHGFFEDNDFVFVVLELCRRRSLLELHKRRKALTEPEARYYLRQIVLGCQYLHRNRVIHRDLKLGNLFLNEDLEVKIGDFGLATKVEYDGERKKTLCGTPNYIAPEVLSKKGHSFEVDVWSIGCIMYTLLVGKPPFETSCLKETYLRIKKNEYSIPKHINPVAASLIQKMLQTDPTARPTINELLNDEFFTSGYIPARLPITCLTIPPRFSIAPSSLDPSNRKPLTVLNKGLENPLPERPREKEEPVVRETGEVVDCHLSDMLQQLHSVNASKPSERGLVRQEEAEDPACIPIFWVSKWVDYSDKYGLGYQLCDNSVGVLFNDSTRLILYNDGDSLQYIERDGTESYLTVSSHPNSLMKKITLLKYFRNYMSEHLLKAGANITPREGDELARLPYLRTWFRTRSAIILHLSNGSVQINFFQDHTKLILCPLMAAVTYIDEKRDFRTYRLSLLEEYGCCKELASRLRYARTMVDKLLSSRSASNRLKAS

Target: BRG1 (SMARCA4) (human (endogenous in HeLa)) (UniProt P51532)
Assay: co-IP

binding: binds
Substance: PLK1 (from UniProt P53350 1-603)
